## Percent effect of library compounds

Chains of the proteins cited; added tags and fusions are not shown. Residues count along the entry.
UniProt Q8IDJ8, 1-583: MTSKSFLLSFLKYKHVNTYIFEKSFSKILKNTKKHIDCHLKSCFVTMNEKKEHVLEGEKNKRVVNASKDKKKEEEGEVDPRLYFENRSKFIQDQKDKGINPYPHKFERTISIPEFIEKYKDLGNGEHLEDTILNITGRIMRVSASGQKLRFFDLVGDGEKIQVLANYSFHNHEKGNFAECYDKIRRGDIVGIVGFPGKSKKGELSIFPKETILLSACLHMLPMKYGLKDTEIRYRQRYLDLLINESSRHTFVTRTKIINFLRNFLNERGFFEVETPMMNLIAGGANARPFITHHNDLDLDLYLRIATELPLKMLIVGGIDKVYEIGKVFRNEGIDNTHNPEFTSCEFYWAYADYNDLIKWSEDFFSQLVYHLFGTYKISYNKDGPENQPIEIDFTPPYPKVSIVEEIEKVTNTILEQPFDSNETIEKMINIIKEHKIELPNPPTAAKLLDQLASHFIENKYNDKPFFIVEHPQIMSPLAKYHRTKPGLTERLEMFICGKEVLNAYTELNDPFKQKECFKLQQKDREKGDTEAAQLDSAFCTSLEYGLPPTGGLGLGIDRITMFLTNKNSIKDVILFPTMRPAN
UniProt Q4DA54, 1-478: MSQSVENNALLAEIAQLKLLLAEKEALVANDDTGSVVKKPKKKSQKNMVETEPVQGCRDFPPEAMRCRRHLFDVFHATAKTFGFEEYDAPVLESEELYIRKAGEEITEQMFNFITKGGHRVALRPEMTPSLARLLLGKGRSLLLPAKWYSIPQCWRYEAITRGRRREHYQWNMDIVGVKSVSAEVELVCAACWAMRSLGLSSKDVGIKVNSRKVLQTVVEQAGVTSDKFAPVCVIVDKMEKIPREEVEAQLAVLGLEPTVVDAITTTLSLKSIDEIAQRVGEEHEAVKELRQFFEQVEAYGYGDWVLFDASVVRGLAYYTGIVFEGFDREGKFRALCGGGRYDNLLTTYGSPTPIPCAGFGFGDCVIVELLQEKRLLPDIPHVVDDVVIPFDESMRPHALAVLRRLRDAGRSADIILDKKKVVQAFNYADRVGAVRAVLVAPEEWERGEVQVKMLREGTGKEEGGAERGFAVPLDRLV

Source: ChEMBL document CHEMBL3988442, “University of Dundee, Small-Polar-MMV Screening Library” (2021).

Leishmania in macrophages: 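Cell assay of Leishmania donovani living inside macrophages; the read-out is not stated. Tested at 30 µM. Higher reads as stronger inhibition (inferred: compounds with an IC50 in retests scored well above the rest). Size under these conditions: about 69,000 compounds, about 1,000 of them at 50% or above in at least one test.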
T. brucei: 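Whole-parasite assay of Trypanosoma brucei over 72 hours; the read-out is not stated. Concentration: 30 µM. The record gives no direction; compounds that gave an IC50 in retests scored well above the rest, so higher reads as stronger inhibition. Values scatter widely below zero; nearly all retest evidence comes from the higher of the two concentrations used. About 64,000 compounds were tested under these conditions; 1.5% (about 940) showed 50% or more at least once.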
Toxoplasma: 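Assay of Toxoplasma gondii numbers, read through their beta-galactosidase reporter with a colour substrate. Tested at 10 µM. Higher reads as fewer parasites (inferred from which compounds were picked for retests). Of about 67,000 compounds tested this way, about 260 (0.38%) reached 50% or more in at least one test.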
PfKRS1: 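Lysine-tRNA ligase, Plasmodium falciparum 3D7 (UniProt Q8IDJ8). Enzyme assay of the cytosolic lysyl-tRNA synthetase in 384-well plates, read by luminescence. Concentration: 30 µM. Higher reads as stronger inhibition, judged from the few compounds that gave an IC50. About 69,000 compounds were tested under these conditions; 0.071% (about 49) showed 50% or more at least once.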
TcHisRS: 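Enzyme assay of histidyl-tRNA synthetase; the read-out is not stated. Target: Histidine-tRNA ligase, Trypanosoma cruzi CL Brener (UniProt Q4DA54). Tested at 30 µM. Higher reads as stronger inhibition (inferred: compounds with an IC50 in retests scored well above the rest). Size under these conditions: about 69,000 compounds, about 31 of them at 50% or above in at least one test.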

Results are given as percent effect. The controls that fix the scale are not given in the record; negative values are as filed. The compounds are a random part of those screened. Two or more numbers in one place are separate tests of the same structure; such repeats can differ widely. A dash means the value is not listed here; it may have been measured.

Compound	Leishmania in macrophages	T. brucei	Toxoplasma	PfKRS1	TcHisRS
O=C1CC(c2cccs2)Cc2[nH]c(=O)c(C(=O)NC3CCCC3)cc21 (centres undefined)	10.41%	-32.85%	6.441%	0.815%	2.273%
COC(=O)c1ccc(N2CCC(N(C)c3ccccc3)CC2)nn1	-13.66%	-17.15%	3.196%	1.168%	9.211%
N#Cc1ccccc1N1CCCN(C(=O)CCn2cccn2)CC1	22.78%	-12.33%	-	2.667%	-2.256%
O=C(CC1CC1)NCc1cn2c(n1)CN(Cc1cccnc1)CC2	-	-	-	2.74%	0.9852%
c1cc(N2CCSCC2)ccc1CNc1cncc2nnnn12	24.17%	-25.31%	10.97%	10.44%	7.772%
CC(C)c1nnc2n1CCN(C(=O)c1cccc(OCC(N)=O)c1)C2	5.199%	-11.12%	1.39%	2.727%	6.723%
O=C(O)C(F)(F)F.[H][C@@]12CCCO[C@]1([H])[C@@H](OCc1ccccn1)CN2C(=O)c1cnoc1C	31.55%	-24.43%	-4.794%	-	-
COc1cccc(C(O)CNC(=O)CC2CCCCC2)c1 (centres undefined)	-1.709%	-17.25%	-7.518%	8.585%	8.511%
Cn1ccc(C(=O)N2CCC[C@]3(C[C@@H](OCc4ccccn4)CO3)C2)n1.O=C(O)C(F)(F)F	20.77%	-	0.269%	-	-
CCOC1COC2(CCN(c3ccccn3)CC2)C1.O=C(O)C(F)(F)F (centres undefined)	18.07%	-36.44%	11.68%	-	-
CCN1CC(O)CN(C(=O)c2ccc(SC)cc2)CC1=O (centres undefined)	-0.3529%	-8.145%	-51.76%	4.071%	5.618%
CC(C)n1cnc2c1C(C(=O)NCCC#N)N(Cc1ccccc1)CC2.O=C(O)C(F)(F)F (centres undefined)	27.56%	12.04%	1.068%	-	-
COc1ccccc1OCCc1cc(C2CCNC2)n[nH]1.Cl.Cl (centres undefined)	-0.5788% and -13.68%	-27.23%	-6.063%	-	-
Cc1noc(C)c1CN1CCOCC12CCN(c1nccs1)CC2	-	-	-	4.067%	7.735%
O=C(O)C(F)(F)F.[H][C@@]12CN(CC)C[C@]1([H])[C@@H](OC)CCN2S(=O)(=O)c1ccccc1	9.684%	4.959%	-0.721%	-	-
CC[C@@H]1N(Cc2ccco2)CCC[C@]12CCC(=O)N2C.O=C(O)C(F)(F)F	5.66%	-70.94%	-23.82%	-	-
CN(Cc1ccco1)C1CCC12CCN(C(=O)N1CCCC1)CC2 (centres undefined)	-	-	-	3.12%	6.796%
CN(CC1COc2ccccc2O1)C(=O)c1ccc(-c2cn[nH]c2)nc1 (centres undefined)	-3.751%	34.02%	-34.79%	3.817%	8.8%
CN(C)[C@@H]1CCN(C(=O)NC2CCCC2)[C@H]1Cc1cnn(C)c1.O=C(O)C(F)(F)F	11.61%	-1.718%	-2.385%	-	-
Cc1cnc(N2CCC3(CC2)CC3C(=O)NCC2CC2)nc1 (centres undefined)	13.03%	-10.47%	5.683%	-6.388%	-1.149%
CCCn1nccc1-c1cnc(CC2CCN(C(C)=O)C2)cn1 (centres undefined)	-14.19%	-7.21%	3.996%	2.404%	7.28%
Cc1ccc(F)cc1NC(=O)c1[nH]ncc1Br	35.28%	-18.64%	3.8%	0.7317%	8.247%
CCc1nnc(CN(C)Cc2nc(-c3ccccc3Cl)oc2C)o1	-0.6608%	15.98%	18.52%	1.703%	-0.5128%
COCCN(CC1CC1)c1nc(CCN)nc2sc(C)c(C)c12	77.93%	105.1%	6.728%	6.558%	18.4%
COc1ccc(C(CC(=O)NCc2n[nH]c(N)n2)c2ccccc2)cc1 (centres undefined)	19.26%	-27.76%	1.826%	4.249%	9.211%
Cc1ccccc1C(=O)N1CCN(c2ccc(-n3cncn3)nn2)CC1	15.17% and 22.5%	13.56%	-0.2574%	-0.05659%	-1.031%
CCN1CCC(CNC(=O)C2(c3cccc(C)c3)CCCCC2)CC1	35.14%	-11.74%	24.62%	-0.2893%	3.944%
COCC(O)CNC(=O)c1coc(COc2ccc3sc(C)nc3c2)n1 (centres undefined)	36.76%	-35.48%	1.423%	5.552%	5.785%
Cc1cccc(N2CCOCC3(C2)CN(c2cnn(C)c2)C(=O)CO3)n1.O=C(O)C(F)(F)F (centres undefined)	35.86%	-21.84%	6.728%	-	-
Cc1cc(-c2cnc(N3CCC(O)CC3)nc2-c2cccnc2C)on1	-13.38%	-31.41%	-2.321%	-1.301%	-1.498%
CS(=O)(=O)N1CCCC1c1cccc(Nc2nccs2)n1 (centres undefined)	27.98%	92.1%	-0.2353%	2.066%	3.802%
Cc1ccc(-c2ccc(C(=O)NCCC(=O)N(C)C)c(F)c2)cc1	-29.01%	-10.98%	-51.99%	1.777%	10.12%
Cc1c(NC(C)C(C)C)cccc1C(=O)NCc1nnc(C)n1C (centres undefined)	-4.843%	-14.63%	-2.941%	0.2389%	1.724%
CCN(Cc1nonc1C)C(=O)c1cc(C(F)(F)F)nn1C	-45.48%	-10.8%	29.16%	3.788%	3.478%
CN1[C@@H](c2ccccc2)[C@@H](C(=O)NCc2ccncc2)C[C@@]1(C)C(=O)O	7.927%	-4.216%	-10.55%	2.235%	10.98%
O=C(Cc1ccc(Cl)cc1)N1CCC(O)(C(F)(F)F)C1 (centres undefined)	-15.6%	-19.5%	-0.6952%	5.198%	6.897%
COC(=O)C(O)C1CCN(CCc2ccncc2)CC1 (centres undefined)	9.422%	-0.2901%	-5.08%	3.018%	-4.433%
CC(C)c1nc(C2CCCN2Cc2nnc(C3CCC3)o2)no1 (centres undefined)	-14.83%	-	6.183%	-0.6736%	-0.2915%
Cc1occc1C(=O)N1CCC2(CC1)CC(OCc1ccccn1)CO2.O=C(O)C(F)(F)F (centres undefined)	9.661%	-782.3%	-24.55%	-	-
CCN(CC)Cc1cc(=O)n2c(n1)CN(C(=O)c1ccnnc1)CCC2	-	-	-	4.526%	15.56%
C=CNC(=O)c1nnc2ccc(N3CCOCC3)cc2n1	42.68%	-8.939%	6.397%	1.11%	2.609%
Cc1cccc(CN2C(=O)CO[C@@H]3CN(Cc4nccn4C)C[C@H]32)c1	-	-	-	4.371%	-5.882%
Cc1cccc(-c2noc(CN3CCCC3Cn3cncn3)n2)c1 (centres undefined)	11.82%	4.808%	-2.983%	1.522%	3.39%
CC(C)Nc1nc2c(c(N(C)C)n1)CCN(Cc1nccn1C)CC2	-	-	-	1.429%	1.149%
CCc1noc(C)c1C(=O)NCc1c(C)nn(CCOC)c1C	25.64%	-2.671%	3.894%	3.55%	0.5128%
Cc1cc(-c2cc(N)c(=O)n(CC(=O)NCC3CCCCC3)n2)c(C)o1	6.612%	-10.12%	-13.11%	-1.879%	5.993%
N#Cc1ccc(F)c(CN2CCNC(=O)C2c2cccs2)c1 (centres undefined)	17.54%	-15.78%	1.645%	-0.6371%	0.5181%
CC(C)N(C)Cc1nnc2n1CCN(Cc1ccncc1)CC2.O=C(O)C(F)(F)F.O=C(O)C(F)(F)F.O=C(O)C(F)(F)F	-2.347%	-0.8585%	0%	-	-
O=C(NCC1CC1)[C@H]1CC[C@@H]2[C@@H](CCN2Cc2nccs2)O1	-	-	-	4.376%	4.673%
Cc1ccc(C(C)NCc2cn(CCC(N)=O)c3ccccc23)cc1C (centres undefined)	88.97%	96.45%	1.947%	3.461%	10.39%
CC(C)NC(=O)c1ccn(COc2c(Cl)cccc2Cl)n1	16.8%	-6.683%	-27.73%	11.36%	2.232%
COc1ccc2c(c1)OCC(Cc1cnc(N)c(C)c1)C2 (centres undefined)	7.697%	-11.88%	11.74%	1.222%	11.64%
OC(CN(Cc1ccccc1)Cc1ccon1)c1cccs1 (centres undefined)	9.438%	-20.07%	-16.04%	0.1028%	3.175%
CNCCc1nc2cc(F)ccc2[nH]1.Cl.Cl	9.192%	-20.87%	-5.066%	-	-
Cc1nnc([C@@H]2CC[C@@H]3[C@@H](CCN3S(=O)(=O)C3CC3)O2)o1	-	-	-	1.393%	4.926%
O=C(Cc1cccc(F)c1)N1C[C@H]2CN(Cc3cccnc3)C[C@H]2C1	-	-	-	-1.656%	7.767%

Repeated from the top, 6 entries:

{"compound": "O=C1CC(c2cccs2)Cc2[nH]c(=O)c(C(=O)NC3CCCC3)cc21", "stereo": "centres undefined", "Leishmania in macrophages": 10.41, "T. brucei": -32.85, "Toxoplasma": 6.441, "PfKRS1": 0.815, "TcHisRS": 2.273}
{"compound": "COC(=O)c1ccc(N2CCC(N(C)c3ccccc3)CC2)nn1", "Leishmania in macrophages": -13.66, "T. brucei": -17.15, "Toxoplasma": 3.196, "PfKRS1": 1.168, "TcHisRS": 9.211}
{"compound": "N#Cc1ccccc1N1CCCN(C(=O)CCn2cccn2)CC1", "Leishmania in macrophages": 22.78, "T. brucei": -12.33, "PfKRS1": 2.667, "TcHisRS": -2.256}
{"compound": "O=C(CC1CC1)NCc1cn2c(n1)CN(Cc1cccnc1)CC2", "PfKRS1": 2.74, "TcHisRS": 0.9852}
{"compound": "c1cc(N2CCSCC2)ccc1CNc1cncc2nnnn12", "Leishmania in macrophages": 24.17, "T. brucei": -25.31, "Toxoplasma": 10.97, "PfKRS1": 10.44, "TcHisRS": 7.772}
{"compound": "CC(C)c1nnc2n1CCN(C(=O)c1cccc(OCC(N)=O)c1)C2", "Leishmania in macrophages": 5.199, "T. brucei": -11.12, "Toxoplasma": 1.39, "PfKRS1": 2.727, "TcHisRS": 6.723}